# Like-named read-outs stand apart in the source and are kept apart here. Results are given in words; binding and its absence hold for the method and conditions named. Binding seen in cells or lysates may run through a third protein. A yes stands for co-enrichment or nearness to the bait. Other partners may have been found. Where a sequence is shown, tags or fusion partners need not be part of it.
# The chains behind the UniProt entries cited, without tags or fusion partners.
# UniProt Q01650: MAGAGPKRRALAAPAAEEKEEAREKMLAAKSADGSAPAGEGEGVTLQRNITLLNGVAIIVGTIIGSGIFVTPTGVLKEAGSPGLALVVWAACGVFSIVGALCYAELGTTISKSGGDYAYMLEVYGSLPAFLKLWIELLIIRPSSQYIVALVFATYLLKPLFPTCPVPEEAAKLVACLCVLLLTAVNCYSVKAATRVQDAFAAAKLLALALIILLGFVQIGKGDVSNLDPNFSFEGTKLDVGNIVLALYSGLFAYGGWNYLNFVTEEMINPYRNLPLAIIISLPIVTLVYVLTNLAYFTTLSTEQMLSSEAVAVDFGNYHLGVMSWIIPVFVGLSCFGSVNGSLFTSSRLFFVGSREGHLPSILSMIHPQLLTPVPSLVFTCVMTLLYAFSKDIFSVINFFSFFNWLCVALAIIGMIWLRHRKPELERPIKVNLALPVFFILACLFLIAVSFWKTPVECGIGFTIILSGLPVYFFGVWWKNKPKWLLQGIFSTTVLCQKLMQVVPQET
# T1: DRAM1-BioID2-FLAG (human) (UniProt Q8N682)
# T1 sequence: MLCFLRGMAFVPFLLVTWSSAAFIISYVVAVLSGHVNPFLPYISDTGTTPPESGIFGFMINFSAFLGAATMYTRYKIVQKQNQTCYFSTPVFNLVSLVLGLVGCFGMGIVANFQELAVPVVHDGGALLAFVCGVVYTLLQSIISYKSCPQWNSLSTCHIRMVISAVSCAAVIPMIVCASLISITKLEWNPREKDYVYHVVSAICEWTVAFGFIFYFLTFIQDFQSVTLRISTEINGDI
# How the values were obtained:
# [1] = biological target: T1, DRAM1-BioID2-FLAG (human); assay: proximity labelling; BioID2 fused to the C-terminus of DRAM1, transiently expressed in HEK293T; 30 μM biotin for 24 h; RIPA lysate; biotinylated proteins isolated on avidin resin and identified by LC-MS/MS
# [2] = biological target: T1, DRAM1-BioID2-FLAG (human); assay: as above; remark: listed apart in the source
Molecule,binding [1],binding [2]
SLC3A2 (from UniProt P08195 1-529),binds,–
SLC7A5 (from UniProt Q01650 1-507),binds,–
"EPS15 (epidermal growth factor receptor pathway substrate 15) (protein, UniProt P42566 1-896) MAAAAQLSLTQLSSGNPVYEKYYRQVDTGNTGRVLASDAAAFLKKSGLPDLILGKIWDLADTDGKGILNKQEFFVALRLVACAQNGLEVSLSSLNLAVPPPRFHDTSSPLLISGTSAAELPWAVKPEDKAKYDAIFDSLSPVNGFLSGDKVKPVLLNSKLPVDILGRVWELSDIDHDGMLDRDEFAVAMFLVYCALEKEPVPMSLPPALVPPSKRKTWVVSPAEKAKYDEIFLKTDKDMDGFVSGLEVREIFLKTGLPSTLLAHIWSLCDTKDCGKLSKDQFALAFHLISQKLIKGIDPPHVLTPEMIPPSDRASLQKNIIGSSPVADFSAIKELDTLNNEIVDLQREKNNVEQDLKEKEDTIKQRTSEVQDLQDEVQRENTNLQKLQAQKQQVQELLDELDEQKAQLEEQLKEVRKKCAEEAQLISSLKAELTSQESQISTYEEELAKAREELSRLQQETAELEESVESGKAQLEPLQQHLQDSQQEISSMQMKLMEMKDLENHNSQLNWCSSPHSILVNGATDYCSLSTSSSETANLNEHVEGQSNLESEPIHQESPARSSPELLPSGVTDENEVTTAVTEKVCSELDNNRHSKEEDPFNVDSSSLTGPVADTNLDFFQSDPFVGSDPFKDDPFGKIDPFGGDPFKGSDPFASDCFFRQSTDPFATSSTDPFSAANNSSITSVETLKHNDPFAPGGTVVAASDSATDPFASVFGNESFGGGFADFSTLSKVNNEDPFRSATSSSVSNVVITKNVFEETSVKSEDEPPALPPKIGTPTRPCPLPPGKRSINKLDSPDPFKLNDPFQPFPGNDSPKEKDPEIFCDPFTSATTTTNKEADPSNFANFSAYPSEEDMIEWAKRESEREEEQRLARLNQQEQEDLELAIALSKSEISEA",–,binds
"SLC1A5 (protein, UniProt Q15758 1-541) MVADPPRDSKGLAAAEPTANGGLALASIEDQGAAAGGYCGSRDQVRRCLRANLLVLLTVVAVVAGVALGLGVSGAGGALALGPERLSAFVFPGELLLRLLRMIILPLVVCSLIGGAASLDPGALGRLGAWALLFFLVTTLLASALGVGLALALQPGAASAAINASVGAAGSAENAPSKEVLDSFLDLARNIFPSNLVSAAFRSYSTTYEERNITGTRVKVPVGQEVEGMNILGLVVFAIVFGVALRKLGPEGELLIRFFNSFNEATMVLVSWIMWYAPVGIMFLVAGKIVEMEDVGLLFARLGKYILCCLLGHAIHGLLVLPLIYFLFTRKNPYRFLWGIVTPLATAFGTSSSSATLPLMMKCVEENNGVAKHISRFILPIGATVNMDGAALFQCVAAVFIAQLSQQSLDFVKIITILVTATASSVGAAGIPAGGVLTLAIILEAVNLPVDHISLILAVDWLVDRSCTVLNVEGDALGAGLLQNYVDRTESRSTEPELIQVKSELPLDPLPVPTEEGNPLLKHYRGPAGDATVASEKESVM",–,binds

# Source: PMC7498585
